The supplement of paper PMC4604168 (melanoma cell lines)
This is one part of the list. Many values rest on one well or one pass, so single values are uncertain.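 Imaging used 1,536-well plates; nuclei positive for cleaved PARP by antibody were divided by total DNA-stained nuclei to yield the apoptosis fraction. Doses for screening kept most cells viable, and cell lines differ markedly in resting and induced cleaved-PARP levels.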

Tests used:
Test in all cases: cleaved PARP positive nuclei fraction relative to DMSO control; melanoma cells; higher = more apoptosis
Conditions in all cases: library dose: low library concentration; 72 h
[1] = system: WM115
[2] = system: WM1716
[3] = system: WM1745
[4] = system: WM3526
[5] = system: WM3619
[6] = system: WM451Lu

| Structure (SMILES) | cleaved PARP positive nuclei fraction [1] [%] | cleaved PARP positive nuclei fraction [2] [%] | cleaved PARP positive nuclei fraction [3] [%] | cleaved PARP positive nuclei fraction [4] [%] | cleaved PARP positive nuclei fraction [5] [%] | cleaved PARP positive nuclei fraction [6] [%] |
| --- | --- | --- | --- | --- | --- | --- |
| Clc1ccc(Nc2nnc(Cc3ccncc3)c3ccccc23)cc1 [vatalanib] + COc1cc2ncnc(Nc3ccc(Oc4ccccc4)cc3)c2cc1OC [SrcI1] (first compound 2 µM, partner dose 2 µM) | 89.9 | 56.9 | 126 | 63.5 | 61.2 | 29.2 |
| CC1(C)NC(=O)N(c2ccc([N+](=O)[O-])c(C(F)(F)F)c2)C1=O [nilutamide] + CCN(CC)CCCCNc1ncc2cc(-c3cc(OC)cc(OC)c3)c(NC(=O)NC(C)(C)C)nc2n1 [PD173074] (first compound 1 µM, partner dose 0.1 µM) | 72.1 | 71.1 | 88.5 | 118 | 67.7 | 50.8 |
| Cc1ccc(NC(=O)c2cccc(N(C)C)c2)cc1NC(=O)c1ccc(O)cc1 + Cn1cncc1[C@@](N)(c1ccc(Cl)cc1)c1ccc2c(c1)c(-c1cccc(Cl)c1)cc(=O)n2C [tipifarnib] (first compound 2 µM, partner dose 0.01 µM) | 183 | 122 | 106 | 67.5 | 106 | 29.1 |
| Cc1nc(Nc2ncc(C(=O)Nc3c(C)cccc3Cl)s2)cc(N2CCN(CCO)CC2)n1 [dasatanib] + c1cc(-c2cnn3cc(-c4ccc(OCCN5CCCCC5)cc4)cnc23)ccn1 [Dorsomorphin] (first compound 0.004 µM, partner dose 0.4 µM) | 145 | 210 | 362 | 166 | 113 | 155 |
| COc1cc(Nc2ncc(F)c(Nc3ccc4c(n3)NC(=O)C(C)(C)O4)n2)cc(OC)c1OC [Tamatinib] + O=C1NC(=O)/C(=C/c2ccc(-c3ccc(F)cc3O)o2)S1 [AS252424] (first compound 0.4 µM, partner dose 1 µM) | 78.4 | 136 | 140 | 95 | 77.5 | 66 |
| Clc1ccc(Nc2nnc(Cc3ccncc3)c3ccccc23)cc1 [vatalanib] + COc1ccc2c(c1)CCC1C2CCC2(C)C(NCCCCCCN3C(=O)C=CC3=O)CCC12 [U73122] (first compound 2 µM, partner dose 0.4 µM) | 324 | 142 | 96.7 | 135 | 120 | 80.4 |
| O=C(CCCCCCC(=O)Nc1ccccc1)NO [vorinostat] + COc1ccc(COc2ccc(Cc3cnc(N)nc3N)cc2OC)cc1 [GW2580] (first compound 0.08 µM, partner dose 1 µM) | 46.6 | 71.8 | 82 | 64.8 | 72.9 | 72.2 |
| COc1cc(Nc2ncc(F)c(Nc3ccc4c(n3)NC(=O)C(C)(C)O4)n2)cc(OC)c1OC [Tamatinib] + Oc1cc(-c2nc(-c3ccccc3)[nH]c2-c2ccncc2)ccc1Cl [L779450] (first compound 0.4 µM, partner dose 0.2 µM) | 283 | 175 | 208 | 116 | 79.4 | 63.9 |
| OCCn1cc(-c2cnc3nnn(Cc4ccc5ncccc5c4)c3n2)cn1 + NCC(=O)Nc1ccc(-n2nc(C(F)(F)F)cc2-c2ccc3c(ccc4ccccc43)c2)cc1 [OSU03012] (first compound 1 µM, partner dose 1 µM) | 77.5 | 122 | 93.5 | 238 | 94.3 | 140 |
| Cc1nc(Nc2ncc(C(=O)Nc3c(C)cccc3Cl)s2)cc(N2CCN(CCO)CC2)n1 [dasatanib] + O=C(CCCCCCC(=O)Nc1ccccc1)NO [vorinostat] (first compound 0.004 µM, partner dose 0.08 µM) | 74.8 | 147 | 123 | 53.7 | 112 | 220 |
| C#Cc1cccc(Nc2ncnc3cc(OCCOC)c(OCCOC)cc23)c1 [erlotinib] + CO[C@@H]1[C@H](N(C)C(=O)c2ccccc2)C[C@H]2O[C@]1(C)n1c3ccccc3c3c4c(c5c6ccccc6n2c5c31)C(=O)NC4 [Midostaurin] (first compound 0.8 µM, partner dose 0.08 µM) | 256 | 156 | 139 | 239 | 127 | 98.7 |
| Nc1cccc2c1CN(C1CCC(=O)NC1=O)C2=O (stereo unspecified) [lenalidomide] + CC(C)(C)c1cnc(CSc2cnc(NC(=O)C3CCNCC3)s2)o1 [SNS-032] (first compound 1 µM, partner dose 0.01 µM) | 48.9 | 104 | 108 | 51.5 | 106 | 100 |
| C#Cc1cccc(Nc2ncnc3cc(OCCOC)c(OCCOC)cc23)c1 [erlotinib] + Cc1cc([N+](=O)[O-])ccc1NS(=O)(=O)c1cc(Cl)ccc1Cl [FH535] (first compound 0.8 µM, partner dose 1 µM) | 180 | 98.8 | 109 | 74.4 | 78 | 62.5 |
| O=C(Nc1cccc(Cl)c1)Nc1ncc(CCNc2ncnc3ccsc23)s1 + O=C(O)C(=O)Nc1sc2c(c1C(=O)O)CCNC2 [TCS401] (first compound 0.0008 µM, partner dose 1.66667 µM) | 394 | 103 | 113 | 74.9 | 85.5 | 92.4 |
| Cn1c(Nc2ccc(C(F)(F)F)cc2)nc2cc(Oc3ccnc(-c4ncc(C(F)(F)F)[nH]4)c3)ccc21 + CC1(C)NC(=O)N(c2ccc([N+](=O)[O-])c(C(F)(F)F)c2)C1=O [nilutamide] (first compound 0.08 µM, partner dose 1 µM) | 321 | 200 | 168 | 112 | 137 | 237 |
| Nc1cccc2c1CN(C1CCC(=O)NC1=O)C2=O (stereo unspecified) [lenalidomide] + O=C(CCCCCCC(=O)Nc1ccccc1)NO [vorinostat] (first compound 1 µM, partner dose 0.08 µM) | 58.4 | 76.9 | 82.7 | 47 | 98 | 341 |
| Cc1ccc(NC(=O)c2cccc(N(C)C)c2)cc1NC(=O)c1ccc(O)cc1 + CCc1ccc(CCOc2ccc(CC3SC(=O)NC3=O)cc2)nc1 [pioglitazone] (first compound 2 µM, partner dose 2 µM) | 64.9 | 94.9 | 107 | 58.6 | 92.7 | 67.2 |
| C=CCn1c(=O)c2cnc(Nc3ccc(N4CCN(C)CC4)cc3)nc2n1-c1cccc(C(C)(C)O)n1 + COc1cc2ncnc(Nc3ccc(Oc4ccccc4)cc3)c2cc1OC [SrcI1] (first compound 0.02 µM, partner dose 2 µM) | 274 | 37.6 | 117 | 67.1 | 180 | 27.1 |
| COc1cc(Nc2ncc(F)c(Nc3ccc4c(n3)NC(=O)C(C)(C)O4)n2)cc(OC)c1OC [Tamatinib] + COc1ccc2c(c1)CCC1C2CCC2(C)C(NCCCCCCN3C(=O)C=CC3=O)CCC12 [U73122] (first compound 0.4 µM, partner dose 0.4 µM) | 306 | 90.4 | 149 | 76.6 | 78.4 | 123 |
| COc1cc(Nc2ncc(F)c(Nc3ccc4c(n3)NC(=O)C(C)(C)O4)n2)cc(OC)c1OC [Tamatinib] + CCc1ccc(CCOc2ccc(CC3SC(=O)NC3=O)cc2)nc1 [pioglitazone] (first compound 0.4 µM, partner dose 2 µM) | 158 | 58.2 | 118 | 67.8 | 86 | 52.8 |
| CC(C)(C)c1cnc(CSc2cnc(NC(=O)C3CCNCC3)s2)o1 + COc1cc2c(Oc3ccc4[nH]c(C)cc4c3F)ncnc2cc1OCCCN1CCCC1 [cediranib] (first compound 0.01 µM, partner dose 0.4 µM) | 155 | 131 | 101 | 56.9 | 94.9 | 84.9 |
| Cc1cc(N2CCOCC2)cc2[nH]c(-c3c(NC[C@@H](O)c4cccc(Cl)c4)cc[nH]c3=O)nc12 + CN(NC(=O)CC(=O)NN(C)C(=S)c1ccccc1)C(=S)c1ccccc1 [STA4783] (first compound 0.2 µM, partner dose 0.006 µM) | 102 | 233 | 387 | 60.6 | 171 | 31.2 |
| C#Cc1cccc(Nc2ncnc3cc(OCCOC)c(OCCOC)cc23)c1 [erlotinib] + CC(C)CCN1c2nc(Nc3cc(F)c(O)c(F)c3)ncc2N(C)C(=O)C1C [BID1870] (first compound 0.8 µM, partner dose 0.2 µM) | 113 | 115 | 113 | 154 | 79 | 63 |
| Clc1ccc(Nc2nnc(Cc3ccncc3)c3ccccc23)cc1 [vatalanib] + O=C(O)c1ccc(-c2c[nH]c3ncc(-c4ccccc4)cc23)cc1C1CCCC1 [GSK650394] (first compound 2 µM, partner dose 0.16 µM) | 23.8 | 143 | 216 | 87.7 | 81.3 | 98.8 |
| CC1(C)NC(=O)N(c2ccc([N+](=O)[O-])c(C(F)(F)F)c2)C1=O [nilutamide] + c1cc(-c2cnn3cc(-c4ccc(OCCN5CCCCC5)cc4)cnc23)ccn1 [Dorsomorphin] (first compound 1 µM, partner dose 0.4 µM) | 140 | 108 | 106 | 60.2 | 171 | 136 |
| C=CCNC1=C2C[C@@H](C)C[C@H](OC)[C@H](O)[C@@H](C)/C=C(\C)[C@H](OC(N)=O)[C@@H](OC)/C=C\C=C(/C)C(=O)NC(=CC1=O)C2=O [Tanespimycin] + NC(=O)Nc1cc(-c2cccc(F)c2)sc1C(=O)N[C@H]1CCCNC1 [AZD7762] (first compound 0.002 µM, partner dose 0.02 µM) | 240 | 142 | 117 | 174 | 228 | 252 |

An excerpt of the results above, for reference:

| Structure (SMILES) | cleaved PARP positive nuclei fraction [1] [%] | cleaved PARP positive nuclei fraction [2] [%] | cleaved PARP positive nuclei fraction [3] [%] | cleaved PARP positive nuclei fraction [4] [%] | cleaved PARP positive nuclei fraction [5] [%] | cleaved PARP positive nuclei fraction [6] [%] |
| --- | --- | --- | --- | --- | --- | --- |
| Cc1nc(Nc2ncc(C(=O)Nc3c(C)cccc3Cl)s2)cc(N2CCN(CCO)CC2)n1 [dasatanib] + O=C(CCCCCCC(=O)Nc1ccccc1)NO [vorinostat] (first compound 0.004 µM, partner dose 0.08 µM) | 74.8 | 147 | 123 | 53.7 | 112 | 220 |
| C#Cc1cccc(Nc2ncnc3cc(OCCOC)c(OCCOC)cc23)c1 [erlotinib] + CO[C@@H]1[C@H](N(C)C(=O)c2ccccc2)C[C@H]2O[C@]1(C)n1c3ccccc3c3c4c(c5c6ccccc6n2c5c31)C(=O)NC4 [Midostaurin] (first compound 0.8 µM, partner dose 0.08 µM) | 256 | 156 | 139 | 239 | 127 | 98.7 |
